Measured values taken from PMC4757822, “Structural and biochemical characterization of an RNA/DNA binding motif in the N-terminal domain of RecQ4 helicases”.
Where a chain is given by its changes, count along the chain named. Weaker means in comparison with the reference protein, sequence or condition of that experiment. Protein sequences can lack the tags named with them. For at least one entry, the source does not settle the construct or the ends of the probe. At least one verdict rests on a figure or table, not on a statement of the authors.

What was measured:
Experiment in all cases: EMSA
Conditions in all cases: 20 mM Tris-HCl pH 7.5, 2 mM MgCl2, 50 mM NaCl, 5% glycerol, 1 mM DTT, 5 mM ZnCl2, 0.1 mg/ml BSA, 10 nM probe, 30 min room temperature; 6% native gel in TBE at 4 C; recombinant protein; residues 335-427; protein details: N-terminal 6His-GST (not cleaved); label: 5'-32P on one strand
hUpZnK m3 N406C (human) = target: T1, hUpZnK m3 N406C (human) (UniProt O94761)
T1 sequence (looked up): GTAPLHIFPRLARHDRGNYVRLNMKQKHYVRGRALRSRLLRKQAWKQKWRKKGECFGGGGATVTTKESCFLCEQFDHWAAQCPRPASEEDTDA

[1] = target: T2, hUpZnK m1 C403A,N406A (human) (UniProt O94761)
T2 sequence (looked up): T1 sequence (looked up) with C69A, C72A

[2] = target: T3, hUpZnK m2 H411A,C416A (human) (UniProt O94761)
T3 sequence (looked up): T1 sequence (looked up) with C72N, H77A, C82A

GUAGUGCAUGUACACCACACUCUUUUUUUUUUUUUUU / UUUUUUUUUUUUUUUGAGUGUGGUGUACAUGCACUAC [forkRNA (A3+A4)]
binding result (hUpZnK m3 N406C (human)): binds
binding result [1]: binds
binding result [2]: binds

GTAGTGCATGTACACCACACTCTTTTTTTTTTTTTTT / TTTTTTTTTTTTTTTGAGTGTGGTGTACATGCACTAC [forkDNA (A1+A2)]
binding result (hUpZnK m3 N406C (human)): binds more weakly
binding result [1]: binds more weakly
binding result [2]: binds more weakly
